Source: patent publication US12678454B2, “Bicarbonate as a potentiator for antimicrobial agents” (priority 2017, dated 2026)
At least one structure is not confirmed: it was looked up by name or label, or the drawing left a doubt.

Legend:
Format in all cases: cell-based, Escherichia coli
E. coli ΔtolC = assay: Potency analysis of dirithromycin in efflux-deficient strain; details: 25 mM sodium bicarbonate
E. coli (K-12 BW25113) = tested on: E. coli (K-12 BW25113)
Protocol: In the following experiments, bacterial cells were cultured in 96-well microtiter plates in cation-adjusted Mueller-Hinton Broth (MHB) for 18 h at 37° C. The main strains used in this study were E. coli (K-12 BW25113) (placed in stationary incubator) and S. aureus (Strain Newman) (incubated at 250 r.p.m). Knockout strains (ΔtolcC and ΔychM) were used from the Keio knockout collection (Baba, T. et al. Construction of Escherichia coli K-12 in-frame, single-gene knockout mutants: the Keio collection. Mol Syst Biol 2, 2006 0008, doi:10.1038/msb4100050 (2006)). For minimum concentration for inhibition (MIC) determination and checkerboard analyses, Clinical & Laboratory Standards Institute (CLSI) protocol was used. […] DiSC3 loading of S. aureus cells was performed as previously described (Farha, M. A., Verschoor, C. P., Bowdish, D. & Brown, E. D. Collapsing the proton motive force to identify synergistic combinations against Staphylococcus aureus. Chemistry & biology 20, 1168-1178, doi:10.1016/j.chembiol.2013.07.006 (2013)). CCCP concentration of 20 μM was used. pH adjustments were made by addition of HCl or NaOH. […]

E. coli ΔychM = assay: Growth inhibition by dirithromycin and sodium bicarbonate in bicarbonate transporter-deficient strain

CC[C@H]1OC(=O)[C@H](C)[C@@H](O[C@H]2C[C@@](C)(OC)[C@@H](O)[C@H](C)O2)[C@H](C)[C@@H](O[C@@H]2O[C@H](C)C[C@H](N(C)C)[C@H]2O)[C@](C)(O)C[C@@H](C)[C@@H]2N[C@@H](COCCOC)O[C@H]([C@H]2C)[C@]1(C)O [Dirithromycin]
effect of sodium bicarbonate on growth inhibition by dirithromycin (E. coli ΔtolC): potentiation by sodium bicarbonate disappears | effect of sodium bicarbonate on growth inhibition by dirithromycin (E. coli (K-12 BW25113)): potentiated | bicarbonate's ability to potentiate dirithromycin, ΔychM vs wild-type (E. coli ΔychM): no difference
